Results are given in words; binding and its absence hold for the method and conditions named. In cells and extracts the contact can be indirect. Some entries that bind do so weakly or less than the wild type.

For the assay, the target named is T1, Recombinant undercarboxylated osteocalcin (ucOCN) (UniProt P86546).
T1 sequence: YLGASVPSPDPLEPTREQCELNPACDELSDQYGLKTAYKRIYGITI
In words: co-IP; mouse primary chondrocytes treated with 5 ng/mL recombinant ucOCN for 4 hours; lysed in IP-lysis buffer (20 mM Tris-HCl pH 7.4, 0.15 M NaCl, 1 mM EDTA, 1 mM EGTA, 1% Triton X-100); precipitated with anti-OCN antibody or IgG control overnight at 4°C, agarose A/G; western blotting.

B1: G protein-coupled receptor class C group 6 member A (GPRC6A) (receptor, UniProt Q8K4Z6 21-928)
chain: CHTPDDFVAITSPGHIMIGGLFAIHEKMLSSDDHPRRPQIQKCAGFEISVFLQTLAMIHSIEMINNSTLLSGVKLGYEIYDTCTEVTAAMAATLRFLSKFNCSRETVVFQCDYSSYMPRVKAVIGAGYSETSIAVSRMLNLQLMPQVSYESTAEILSDKIRFPSFLRTVPSDFYQTKAMAHLIRQSGWNWIGAITTDDDYGRLALNTFAIQAAENNVCIAFKEVLPAFLSDNTIEVRINQTLEKIIAEAQVNVIVVFLRKFHVFNLFTKAIERKISKIWIASDNWSTATKIITIPNVKKLGKVVGFAFRRGNTSSFHSFLQTLHMYPNDNNKPLHEFAMLVSACKYIKDGDLSQCISNYSQATLTYDTTKTIENHLFKRNDFLWHYTEPGLIYSIQLAVFALGHAIRDLCQARDCKKPNAFQPWELLAVLKNVTFTDGRNSFHFDAHGDLNTGYDVVLWKETNGLMTVTKMAEYDLQRDVFITTNQETKHEFRKLKQILSKCSKECSPGQMKKATGSQHSCCYECVSCPENHYSNETDMDHCLLCNNETHWAPVRSTTCFEKEVEYLDWDDSLALLLIALSLLGIAFVLAIGIIFTRNLKTPVVKSSGGLVVCYVMLICHALNFASTGFFIGEPQDFACKTRQTLFGVSFTLCVSCILTKSLKILLAFSFDPKLTMFLKCLYRPVPIVLTCTGIQVVICTLWLVLAAPSVEENISLPRVIILECEEGSALAFGTMLGYITVLAFICFVFAFKGRKLPENYNEAKFLTFGMLIYFIAWITFIPVYTTTFGKYLPAVEIIVILISNYGILCCIFFPKCYIILCKQKTNTKSAFLQMVYNYSAHSVDSLALSHVSLDSTSYDTATTNQSPGNKMTACQNDNHLPAQVLPHTGTAKTIKASKTLRQKRSSSI
In the case of B1, the binding result is “binds”.

Source of the values: paper PMC12320228.
